# Some of the results follow. Most values lie at the level of the controls, where differences are scatter.
# Chains of the proteins cited; added tags and fusions are not shown. Lines headed by an entry give the natural chain unless they say otherwise; changes in a name come on top.
# UniProt Q8K0G8: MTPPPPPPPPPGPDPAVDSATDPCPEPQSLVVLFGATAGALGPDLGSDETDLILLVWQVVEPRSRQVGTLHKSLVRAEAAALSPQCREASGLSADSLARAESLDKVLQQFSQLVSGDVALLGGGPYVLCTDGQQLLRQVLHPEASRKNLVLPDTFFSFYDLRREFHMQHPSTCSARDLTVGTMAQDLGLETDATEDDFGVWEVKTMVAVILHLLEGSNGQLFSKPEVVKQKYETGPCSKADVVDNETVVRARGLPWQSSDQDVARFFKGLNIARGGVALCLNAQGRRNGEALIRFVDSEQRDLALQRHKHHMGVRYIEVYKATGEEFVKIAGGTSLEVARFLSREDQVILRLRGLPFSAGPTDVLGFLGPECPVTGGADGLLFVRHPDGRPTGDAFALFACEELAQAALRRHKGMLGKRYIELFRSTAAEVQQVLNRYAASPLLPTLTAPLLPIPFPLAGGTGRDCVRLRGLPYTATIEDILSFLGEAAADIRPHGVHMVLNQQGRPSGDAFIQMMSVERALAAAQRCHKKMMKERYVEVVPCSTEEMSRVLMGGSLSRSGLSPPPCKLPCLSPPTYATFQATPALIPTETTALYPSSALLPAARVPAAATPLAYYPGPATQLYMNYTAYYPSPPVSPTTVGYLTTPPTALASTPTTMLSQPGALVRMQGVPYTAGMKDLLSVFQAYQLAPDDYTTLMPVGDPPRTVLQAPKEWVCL
# UniProt Q8R4H7: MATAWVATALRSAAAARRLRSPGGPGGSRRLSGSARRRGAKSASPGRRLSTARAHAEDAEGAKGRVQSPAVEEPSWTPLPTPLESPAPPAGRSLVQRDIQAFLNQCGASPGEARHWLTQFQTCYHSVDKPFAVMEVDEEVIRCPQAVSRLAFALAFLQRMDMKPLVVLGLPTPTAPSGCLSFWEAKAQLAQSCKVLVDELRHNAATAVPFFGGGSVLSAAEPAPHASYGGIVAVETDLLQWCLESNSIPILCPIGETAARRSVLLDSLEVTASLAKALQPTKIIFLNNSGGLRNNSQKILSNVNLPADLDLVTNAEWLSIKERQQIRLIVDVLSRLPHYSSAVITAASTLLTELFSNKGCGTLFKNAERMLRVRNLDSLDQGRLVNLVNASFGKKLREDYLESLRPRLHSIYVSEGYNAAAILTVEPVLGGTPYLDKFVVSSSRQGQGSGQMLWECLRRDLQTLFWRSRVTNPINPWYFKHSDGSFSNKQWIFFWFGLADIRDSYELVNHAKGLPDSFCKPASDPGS
# UniProt Q8R2Q4: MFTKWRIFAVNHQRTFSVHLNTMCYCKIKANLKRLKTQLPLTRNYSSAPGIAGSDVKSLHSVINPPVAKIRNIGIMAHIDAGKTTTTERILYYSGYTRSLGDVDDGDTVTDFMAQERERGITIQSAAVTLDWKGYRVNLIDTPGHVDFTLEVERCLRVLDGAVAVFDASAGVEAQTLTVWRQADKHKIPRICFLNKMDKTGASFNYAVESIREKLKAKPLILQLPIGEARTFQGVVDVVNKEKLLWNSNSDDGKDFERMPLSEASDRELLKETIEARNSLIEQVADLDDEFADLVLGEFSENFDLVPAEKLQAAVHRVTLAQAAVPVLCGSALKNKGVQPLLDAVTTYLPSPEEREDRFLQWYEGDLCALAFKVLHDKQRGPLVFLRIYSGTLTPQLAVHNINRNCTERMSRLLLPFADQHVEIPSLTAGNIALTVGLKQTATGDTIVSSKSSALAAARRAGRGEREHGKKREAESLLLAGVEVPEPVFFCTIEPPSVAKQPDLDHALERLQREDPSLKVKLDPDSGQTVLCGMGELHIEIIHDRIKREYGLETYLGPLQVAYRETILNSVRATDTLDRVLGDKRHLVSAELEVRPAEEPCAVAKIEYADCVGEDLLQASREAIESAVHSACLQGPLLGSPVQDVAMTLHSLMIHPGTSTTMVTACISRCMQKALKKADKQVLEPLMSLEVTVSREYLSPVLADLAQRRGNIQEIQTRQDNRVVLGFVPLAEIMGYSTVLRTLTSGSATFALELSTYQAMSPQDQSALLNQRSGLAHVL
# UniProt Q8CHQ9: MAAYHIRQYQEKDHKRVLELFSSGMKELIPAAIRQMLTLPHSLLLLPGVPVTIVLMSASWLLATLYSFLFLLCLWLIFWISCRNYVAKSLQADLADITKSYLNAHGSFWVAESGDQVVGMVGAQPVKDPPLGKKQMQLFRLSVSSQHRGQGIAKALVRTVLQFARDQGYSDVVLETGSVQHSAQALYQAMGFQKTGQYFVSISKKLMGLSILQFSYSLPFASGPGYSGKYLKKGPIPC
# UniProt Q8R033: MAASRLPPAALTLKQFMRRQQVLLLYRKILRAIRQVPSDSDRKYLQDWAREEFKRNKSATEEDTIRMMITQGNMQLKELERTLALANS
# UniProt Q8R5I6: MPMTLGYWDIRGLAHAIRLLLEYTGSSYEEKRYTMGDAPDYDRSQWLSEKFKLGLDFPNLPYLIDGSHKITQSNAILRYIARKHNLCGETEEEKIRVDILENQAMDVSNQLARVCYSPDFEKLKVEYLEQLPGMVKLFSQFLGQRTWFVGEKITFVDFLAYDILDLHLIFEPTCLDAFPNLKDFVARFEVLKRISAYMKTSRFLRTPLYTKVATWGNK
# UniProt Q8K337: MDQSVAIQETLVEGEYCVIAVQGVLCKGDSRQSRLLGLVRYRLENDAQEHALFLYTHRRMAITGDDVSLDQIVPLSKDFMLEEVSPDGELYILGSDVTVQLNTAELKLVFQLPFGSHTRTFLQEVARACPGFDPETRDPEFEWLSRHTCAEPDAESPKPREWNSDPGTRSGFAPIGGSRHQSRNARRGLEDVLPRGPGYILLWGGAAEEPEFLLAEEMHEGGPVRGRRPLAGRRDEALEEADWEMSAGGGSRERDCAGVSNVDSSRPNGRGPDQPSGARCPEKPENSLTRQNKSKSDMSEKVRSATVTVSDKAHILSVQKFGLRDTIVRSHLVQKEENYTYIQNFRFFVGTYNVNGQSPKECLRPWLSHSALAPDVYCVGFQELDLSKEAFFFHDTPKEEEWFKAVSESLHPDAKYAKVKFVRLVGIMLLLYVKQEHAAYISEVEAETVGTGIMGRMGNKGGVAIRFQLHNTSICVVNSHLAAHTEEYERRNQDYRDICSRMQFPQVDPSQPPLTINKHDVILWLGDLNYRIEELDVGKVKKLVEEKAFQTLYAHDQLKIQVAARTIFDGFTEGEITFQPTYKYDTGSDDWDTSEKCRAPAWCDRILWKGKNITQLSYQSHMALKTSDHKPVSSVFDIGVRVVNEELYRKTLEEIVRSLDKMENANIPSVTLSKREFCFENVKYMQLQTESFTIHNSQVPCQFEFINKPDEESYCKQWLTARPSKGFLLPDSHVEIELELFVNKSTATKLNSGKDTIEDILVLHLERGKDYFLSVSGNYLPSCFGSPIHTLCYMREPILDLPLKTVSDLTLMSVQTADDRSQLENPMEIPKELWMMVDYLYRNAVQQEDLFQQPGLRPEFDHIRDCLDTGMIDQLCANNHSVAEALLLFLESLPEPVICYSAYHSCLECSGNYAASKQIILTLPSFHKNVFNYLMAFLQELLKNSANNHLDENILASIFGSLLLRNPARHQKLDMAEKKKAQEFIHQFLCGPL
# UniProt Q8VCH8: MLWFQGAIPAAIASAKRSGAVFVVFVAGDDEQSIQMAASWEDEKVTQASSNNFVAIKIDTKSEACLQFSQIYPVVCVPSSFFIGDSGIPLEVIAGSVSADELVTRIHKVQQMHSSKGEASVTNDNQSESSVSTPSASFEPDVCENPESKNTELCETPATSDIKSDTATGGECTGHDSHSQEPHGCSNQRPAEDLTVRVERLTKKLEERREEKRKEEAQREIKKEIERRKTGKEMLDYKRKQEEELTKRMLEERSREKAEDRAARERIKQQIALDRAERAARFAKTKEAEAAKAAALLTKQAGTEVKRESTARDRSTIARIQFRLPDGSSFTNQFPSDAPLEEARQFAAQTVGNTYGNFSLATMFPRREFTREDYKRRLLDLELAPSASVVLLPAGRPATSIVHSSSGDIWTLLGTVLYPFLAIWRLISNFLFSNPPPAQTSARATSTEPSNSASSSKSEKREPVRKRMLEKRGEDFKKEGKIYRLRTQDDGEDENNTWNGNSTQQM
# UniProt Q8CHT1: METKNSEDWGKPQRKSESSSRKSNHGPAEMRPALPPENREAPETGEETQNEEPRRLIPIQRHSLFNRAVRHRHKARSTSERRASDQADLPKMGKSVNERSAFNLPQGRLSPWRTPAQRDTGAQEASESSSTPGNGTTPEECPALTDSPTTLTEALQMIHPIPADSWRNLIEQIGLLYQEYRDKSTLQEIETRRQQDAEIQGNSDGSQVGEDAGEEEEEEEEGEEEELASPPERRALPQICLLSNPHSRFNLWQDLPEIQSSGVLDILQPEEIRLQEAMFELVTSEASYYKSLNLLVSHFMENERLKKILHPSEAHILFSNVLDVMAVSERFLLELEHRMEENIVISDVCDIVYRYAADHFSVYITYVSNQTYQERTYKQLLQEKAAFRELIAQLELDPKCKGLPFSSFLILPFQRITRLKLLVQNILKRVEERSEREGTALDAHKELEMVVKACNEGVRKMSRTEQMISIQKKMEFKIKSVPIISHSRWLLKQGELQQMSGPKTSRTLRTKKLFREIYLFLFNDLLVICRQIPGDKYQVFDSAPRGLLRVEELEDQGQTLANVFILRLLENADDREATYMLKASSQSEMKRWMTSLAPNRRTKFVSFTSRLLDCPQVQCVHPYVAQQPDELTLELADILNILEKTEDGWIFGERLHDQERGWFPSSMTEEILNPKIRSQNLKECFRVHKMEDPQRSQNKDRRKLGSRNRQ
# UniProt Q8R2M2: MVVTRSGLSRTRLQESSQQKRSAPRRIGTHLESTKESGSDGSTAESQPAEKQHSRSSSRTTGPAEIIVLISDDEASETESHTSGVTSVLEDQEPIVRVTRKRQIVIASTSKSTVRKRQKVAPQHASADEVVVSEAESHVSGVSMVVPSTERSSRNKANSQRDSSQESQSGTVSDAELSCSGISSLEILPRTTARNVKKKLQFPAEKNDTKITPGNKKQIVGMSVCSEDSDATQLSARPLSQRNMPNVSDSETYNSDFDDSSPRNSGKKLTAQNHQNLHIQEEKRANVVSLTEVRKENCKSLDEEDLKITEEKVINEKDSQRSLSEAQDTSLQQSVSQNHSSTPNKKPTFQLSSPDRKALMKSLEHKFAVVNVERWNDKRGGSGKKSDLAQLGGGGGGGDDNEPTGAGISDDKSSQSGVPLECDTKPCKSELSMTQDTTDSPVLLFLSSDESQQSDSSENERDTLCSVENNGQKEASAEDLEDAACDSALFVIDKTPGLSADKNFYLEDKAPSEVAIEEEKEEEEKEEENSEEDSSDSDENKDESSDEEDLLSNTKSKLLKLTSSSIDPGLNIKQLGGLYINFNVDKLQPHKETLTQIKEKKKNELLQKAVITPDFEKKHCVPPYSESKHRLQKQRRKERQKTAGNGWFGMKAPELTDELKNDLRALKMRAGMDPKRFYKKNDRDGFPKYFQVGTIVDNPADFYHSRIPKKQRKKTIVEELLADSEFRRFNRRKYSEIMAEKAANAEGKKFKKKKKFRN
# UniProt Q8VCC1: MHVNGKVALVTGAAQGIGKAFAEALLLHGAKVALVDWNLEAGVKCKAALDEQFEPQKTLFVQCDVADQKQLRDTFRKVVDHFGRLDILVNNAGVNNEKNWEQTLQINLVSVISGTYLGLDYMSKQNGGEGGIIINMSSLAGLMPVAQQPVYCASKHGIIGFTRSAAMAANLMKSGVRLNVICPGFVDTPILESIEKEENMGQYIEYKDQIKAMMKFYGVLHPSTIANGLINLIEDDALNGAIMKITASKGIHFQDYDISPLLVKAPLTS
# UniProt Q8R2U0: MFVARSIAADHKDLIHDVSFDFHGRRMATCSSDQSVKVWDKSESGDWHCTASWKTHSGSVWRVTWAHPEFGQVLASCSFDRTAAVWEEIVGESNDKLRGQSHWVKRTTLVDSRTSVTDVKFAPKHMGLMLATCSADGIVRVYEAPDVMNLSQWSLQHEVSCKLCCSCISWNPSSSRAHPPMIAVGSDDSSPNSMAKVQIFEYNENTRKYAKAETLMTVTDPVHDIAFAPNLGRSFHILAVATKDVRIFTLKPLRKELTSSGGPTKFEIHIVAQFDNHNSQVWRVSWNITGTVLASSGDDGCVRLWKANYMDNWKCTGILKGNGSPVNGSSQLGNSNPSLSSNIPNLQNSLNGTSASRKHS
# UniProt Q8R059: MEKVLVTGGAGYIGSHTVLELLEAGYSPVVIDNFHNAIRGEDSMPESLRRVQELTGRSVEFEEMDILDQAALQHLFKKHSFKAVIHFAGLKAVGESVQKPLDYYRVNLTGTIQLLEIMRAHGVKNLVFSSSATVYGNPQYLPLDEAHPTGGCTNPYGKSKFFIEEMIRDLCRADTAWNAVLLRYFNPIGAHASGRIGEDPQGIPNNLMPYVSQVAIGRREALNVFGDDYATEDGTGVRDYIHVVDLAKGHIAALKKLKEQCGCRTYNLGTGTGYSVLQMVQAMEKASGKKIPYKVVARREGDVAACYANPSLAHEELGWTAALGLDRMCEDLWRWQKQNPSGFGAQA
# Compound: CN[C@@H]1C[C@H]2O[C@@](C)([C@@H]1OC)n1c3ccccc3c3c4c(c5c6ccccc6n2c5c31)C(=O)NC4 [staurosporine]
# Assay: log2 fold change of pooled soluble protein (PISA), ligand vs vehicle (log2 ratio); higher = more thermally stabilized
# Settings: ligand concentration: 20 uM; assay format: PISA pool 52.9/55.5/58.6 C
row,Target,log2 fold change of pooled soluble protein
1,UniProt Q8K2Q0,0.125
2,UniProt Q8R550,-0.027
3,UniProt Q8K4G5,-0.0767
4,UniProt Q8R3Q0,-0.0227
5,UniProt Q8K0G8,-0.201
6,UniProt Q8CIB6,-0.0231
7,UniProt Q8VC60,-0.211
8,UniProt Q8K2Z2,0.16
9,UniProt Q8R2Y8,0.0175
10,UniProt Q8R4H7,0.184
11,UniProt Q8R121,0.123
12,UniProt Q8QZR1,0.0502
13,UniProt Q8K3A9,0.0816
14,UniProt Q8K3J1,-0.141
15,UniProt Q8R2Q4,-0.0707
16,UniProt Q8R035,-0.0166
17,UniProt Q8K2I3,-0.0398
18,UniProt Q8CHQ9,-0.0528
19,UniProt Q8R033,-0.195

row,Target,log2 fold change of pooled soluble protein
1,UniProt Q8R5I6,0.417
2,UniProt Q8K337,-0.589
3,UniProt Q8QZS1,0.0605
4,UniProt Q8VCH8,0.403
5,UniProt Q8CHT1,-0.163
6,UniProt Q8R086,0.0734
7,UniProt Q8R2M2,-0.0555
8,UniProt Q8CIG8,-0.101
9,UniProt Q8VCC1,-0.0788
10,UniProt Q8R5C5,0.0909
11,UniProt Q8VC28,0.0885
12,UniProt Q8R2U0,0.348
13,UniProt Q8CHC4,0.117
14,UniProt Q8R059,-0.0281
15,UniProt Q8CGK3,-0.165
16,UniProt Q8K1C0,0.0529
17,UniProt Q8JZN7,0.134
18,UniProt Q8VBX6,-0.19

# An excerpt from the list above, as a working copy:
row,Target,log2 fold change of pooled soluble protein
1,UniProt Q8R5I6,0.417
2,UniProt Q8K337,-0.589
